These results are taken from patent publication US20200206344A1, “METHODS FOR MODULATING THE INTERACTION BETWEEN EWS-FLI1 AND BAF COMPLEXES” (Dana-Farber Cancer Institute, Inc., priority 2017, published 2020).

This assay has as its target T1, V5-EWS-FLI1 (human).
T1 sequence: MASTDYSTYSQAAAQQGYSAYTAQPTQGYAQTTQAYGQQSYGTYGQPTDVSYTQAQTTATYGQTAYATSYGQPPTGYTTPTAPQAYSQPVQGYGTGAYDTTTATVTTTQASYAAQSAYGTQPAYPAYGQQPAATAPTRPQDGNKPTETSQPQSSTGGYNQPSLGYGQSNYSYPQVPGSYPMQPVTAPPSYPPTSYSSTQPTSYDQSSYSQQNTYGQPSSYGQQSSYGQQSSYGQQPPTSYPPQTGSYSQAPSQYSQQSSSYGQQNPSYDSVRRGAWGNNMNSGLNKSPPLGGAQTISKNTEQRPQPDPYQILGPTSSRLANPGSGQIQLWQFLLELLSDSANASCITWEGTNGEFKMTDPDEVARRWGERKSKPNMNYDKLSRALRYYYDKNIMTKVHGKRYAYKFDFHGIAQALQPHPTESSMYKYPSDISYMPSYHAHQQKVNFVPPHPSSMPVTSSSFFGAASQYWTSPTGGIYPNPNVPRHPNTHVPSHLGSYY
In words: co-immunoprecipitation with anti-V5 antibodies, HEK-293-T cells co-expressing HA- and V5-tagged proteins.

These are yes or no findings as the source states them, for the method shown. Binding seen in cells or lysates may run through a third protein. Some entries that bind do so weakly or less than the wild type. Sequences can lack the tags named with a protein.

B1: HA-EWS-FLI1 (protein, not shown: small tags and cut ends)
chain: MASTDYSTYSQAAAQQGYSAYTAQPTQGYAQTTQAYGQQSYGTYGQPTDVSYTQAQTTATYGQTAYATSYGQPPTGYTTPTAPQAYSQPVQGYGTGAYDTTTATVTTTQASYAAQSAYGTQPAYPAYGQQPAATAPTRPQDGNKPTETSQPQSSTGGYNQPSLGYGQSNYSYPQVPGSYPMQPVTAPPSYPPTSYSSTQPTSYDQSSYSQQNTYGQPSSYGQQSSYGQQSSYGQQPPTSYPPQTGSYSQAPSQYSQQSSSYGQQNPSYDSVRRGAWGNNMNSGLNKSPPLGGAQTISKNTEQRPQPDPYQILGPTSSRLANPGSGQIQLWQFLLELLSDSANASCITWEGTNGEFKMTDPDEVARRWGERKSKPNMNYDKLSRALRYYYDKNIMTKVHGKRYAYKFDFHGIAQALQPHPTESSMYKYPSDISYMPSYHAHQQKVNFVPPHPSSMPVTSSSFFGAASQYWTSPTGGIYPNPNVPRHPNTHVPSHLGSYY
As to B1, the binding entry was “binds”.
